Laboratory results taken from patent publication US20180237485A1.
No constants are given. Whether binding was seen depends on the method and setting. Some binding calls cover weakened binding; strength is not graded here. Tags and fused reporters may be left off the sequences shown.

Sequences of proteins named here, by UniProt entry; tags and fusion partners are left off. Residues count along the entry.
UniProt O35607, residues 27-1038: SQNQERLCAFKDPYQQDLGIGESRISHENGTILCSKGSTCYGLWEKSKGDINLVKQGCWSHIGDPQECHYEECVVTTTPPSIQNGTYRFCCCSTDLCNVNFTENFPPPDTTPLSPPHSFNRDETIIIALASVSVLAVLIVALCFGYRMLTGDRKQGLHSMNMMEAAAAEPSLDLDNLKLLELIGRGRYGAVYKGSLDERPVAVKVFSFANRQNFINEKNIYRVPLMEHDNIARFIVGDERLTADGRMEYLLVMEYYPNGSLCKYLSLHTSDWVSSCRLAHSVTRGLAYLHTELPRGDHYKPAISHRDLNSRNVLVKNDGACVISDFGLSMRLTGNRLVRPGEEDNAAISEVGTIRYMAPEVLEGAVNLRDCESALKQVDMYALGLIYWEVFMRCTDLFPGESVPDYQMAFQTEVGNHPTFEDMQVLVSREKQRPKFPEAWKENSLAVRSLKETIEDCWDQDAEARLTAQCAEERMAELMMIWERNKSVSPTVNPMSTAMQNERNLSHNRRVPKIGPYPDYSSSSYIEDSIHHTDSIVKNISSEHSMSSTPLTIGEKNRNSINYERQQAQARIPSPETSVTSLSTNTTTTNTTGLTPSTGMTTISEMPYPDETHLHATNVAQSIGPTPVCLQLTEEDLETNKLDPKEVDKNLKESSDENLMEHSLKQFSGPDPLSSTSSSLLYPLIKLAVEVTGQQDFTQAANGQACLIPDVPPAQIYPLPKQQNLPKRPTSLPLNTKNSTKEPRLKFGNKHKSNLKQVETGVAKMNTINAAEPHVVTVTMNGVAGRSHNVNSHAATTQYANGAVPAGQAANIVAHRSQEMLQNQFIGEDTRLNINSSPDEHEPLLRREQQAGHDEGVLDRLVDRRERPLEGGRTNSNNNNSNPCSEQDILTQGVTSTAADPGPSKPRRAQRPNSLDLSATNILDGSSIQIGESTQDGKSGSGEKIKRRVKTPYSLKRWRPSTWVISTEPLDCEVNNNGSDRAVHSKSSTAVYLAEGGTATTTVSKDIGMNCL

Tests used:
[1] = target: BMP receptor II (endogenous, in MC3T3-E1 preosteoblasts) (mouse) (UniProt O35607); test: confocal microscopy co-localization
[2] = target: BMP receptor II (endogenous, in MC3T3-E1 preosteoblasts) (mouse) (UniProt O35607); test: confocal microscopy co-localization of FITC-labeled protein with anti-BMP receptor II staining in MC3T3-E1 preosteoblasts

B1: aMTD442-fused CP-BMP2 recombinant protein (cell-permeable BMP2, M form, fused with His-tag, aMTD442 and SDA) (protein)
chain: MGSSHHHHHHSSGLVPRGSALAALVPAVLVPQAKHKQRKRLKSSCKRHPLYVDFSDVGWNDWIVAPPGYHAFYCHGECPFPLADHLNSTNHAIVQTLVNSVNSKIPKACCVPTELSAISMLYLDENEKVVLKNYQDMVVEGCGCRYMANITVFYNEDFQGKQVDLPPGNYTRAQLAALGIENNTISSVKVPPGVKAILYQNDGFAGDQIEVVANAEELGPLNNNVSSIRVISVPVQPRMANITVFYNEDFQGKQVDLPPGNYTRAQLAALGIENNTISSVKVPPGVKAILYQNDGFAGDQIEVVANAEELGPLNNNVSSIRVISVPVQPR
modifications: FITC-labeled (sites not given)
Which results are given for B1?
binding [1]: binds; binding [2]: binds
